Reference: article PMC13462943
No constants are given. Whether binding was seen depends on the method and setting. Some results given as binding are weak or reduced against the parent protein; the word gives no strength.

The chains behind the UniProt entries cited, without tags or fusion partners. Where a name states a change or a piece, a line headed by the entry shows the natural chain unless it says otherwise. A line that says so, or that is headed by a name, gives the form on record, which may keep a tag or linker. Residues count along the entry.
G9a (aa residues 601-1193), ankyrin repeats and methyltransferase domain, wild type (Q96KQ7, residues 601-1193): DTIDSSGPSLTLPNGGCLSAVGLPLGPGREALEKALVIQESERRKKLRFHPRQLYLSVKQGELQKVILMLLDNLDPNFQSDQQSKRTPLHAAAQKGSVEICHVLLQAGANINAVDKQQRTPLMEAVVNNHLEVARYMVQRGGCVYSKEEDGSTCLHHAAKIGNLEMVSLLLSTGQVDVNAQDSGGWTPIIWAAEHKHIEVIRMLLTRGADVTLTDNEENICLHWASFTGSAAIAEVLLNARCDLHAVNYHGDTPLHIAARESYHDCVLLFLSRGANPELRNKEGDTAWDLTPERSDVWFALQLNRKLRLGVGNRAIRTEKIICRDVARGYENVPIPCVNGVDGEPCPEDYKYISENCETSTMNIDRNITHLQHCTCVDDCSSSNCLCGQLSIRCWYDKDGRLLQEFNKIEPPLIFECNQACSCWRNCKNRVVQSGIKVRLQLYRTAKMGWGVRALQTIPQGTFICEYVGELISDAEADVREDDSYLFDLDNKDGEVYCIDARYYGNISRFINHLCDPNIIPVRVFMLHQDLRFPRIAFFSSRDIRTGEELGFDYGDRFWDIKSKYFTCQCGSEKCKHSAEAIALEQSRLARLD
G9a (aa residues 601-1193), ankyrin repeats and methyltransferase domain, A1077S (Q96KQ7, form named): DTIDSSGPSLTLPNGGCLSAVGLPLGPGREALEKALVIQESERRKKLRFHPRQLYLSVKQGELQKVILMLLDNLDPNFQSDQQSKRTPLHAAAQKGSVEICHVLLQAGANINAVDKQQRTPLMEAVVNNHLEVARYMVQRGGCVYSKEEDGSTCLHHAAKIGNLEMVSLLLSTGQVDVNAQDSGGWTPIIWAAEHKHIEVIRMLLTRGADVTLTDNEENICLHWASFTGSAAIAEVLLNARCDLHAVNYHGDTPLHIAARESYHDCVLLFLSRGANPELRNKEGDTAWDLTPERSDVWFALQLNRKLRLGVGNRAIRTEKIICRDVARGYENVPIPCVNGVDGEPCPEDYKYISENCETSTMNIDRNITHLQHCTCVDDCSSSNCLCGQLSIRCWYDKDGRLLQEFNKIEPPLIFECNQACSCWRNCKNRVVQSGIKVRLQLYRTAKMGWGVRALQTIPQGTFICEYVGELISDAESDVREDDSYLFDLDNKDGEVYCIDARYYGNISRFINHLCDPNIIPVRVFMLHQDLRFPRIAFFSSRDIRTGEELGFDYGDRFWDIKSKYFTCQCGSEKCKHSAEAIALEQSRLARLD
G9a (aa residues 601-1193), ankyrin repeats and methyltransferase domain, Del 1076-9 (Q96KQ7, form named): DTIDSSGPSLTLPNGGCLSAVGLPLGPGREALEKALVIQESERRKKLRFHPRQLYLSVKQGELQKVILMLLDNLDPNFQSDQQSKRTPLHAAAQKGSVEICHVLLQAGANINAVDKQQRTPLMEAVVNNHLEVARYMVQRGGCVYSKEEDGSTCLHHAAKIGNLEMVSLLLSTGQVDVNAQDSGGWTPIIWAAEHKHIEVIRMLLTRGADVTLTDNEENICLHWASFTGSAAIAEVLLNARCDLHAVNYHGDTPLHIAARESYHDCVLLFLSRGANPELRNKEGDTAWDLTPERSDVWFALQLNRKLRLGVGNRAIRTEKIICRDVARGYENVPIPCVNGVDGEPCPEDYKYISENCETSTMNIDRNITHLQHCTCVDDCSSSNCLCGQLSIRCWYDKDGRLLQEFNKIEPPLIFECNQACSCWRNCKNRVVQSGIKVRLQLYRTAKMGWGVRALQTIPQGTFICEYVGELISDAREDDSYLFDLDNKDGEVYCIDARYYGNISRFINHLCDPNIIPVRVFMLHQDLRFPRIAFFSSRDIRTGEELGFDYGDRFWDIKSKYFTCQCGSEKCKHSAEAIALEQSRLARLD
UniProt Q9H9B1, residues 710-1285: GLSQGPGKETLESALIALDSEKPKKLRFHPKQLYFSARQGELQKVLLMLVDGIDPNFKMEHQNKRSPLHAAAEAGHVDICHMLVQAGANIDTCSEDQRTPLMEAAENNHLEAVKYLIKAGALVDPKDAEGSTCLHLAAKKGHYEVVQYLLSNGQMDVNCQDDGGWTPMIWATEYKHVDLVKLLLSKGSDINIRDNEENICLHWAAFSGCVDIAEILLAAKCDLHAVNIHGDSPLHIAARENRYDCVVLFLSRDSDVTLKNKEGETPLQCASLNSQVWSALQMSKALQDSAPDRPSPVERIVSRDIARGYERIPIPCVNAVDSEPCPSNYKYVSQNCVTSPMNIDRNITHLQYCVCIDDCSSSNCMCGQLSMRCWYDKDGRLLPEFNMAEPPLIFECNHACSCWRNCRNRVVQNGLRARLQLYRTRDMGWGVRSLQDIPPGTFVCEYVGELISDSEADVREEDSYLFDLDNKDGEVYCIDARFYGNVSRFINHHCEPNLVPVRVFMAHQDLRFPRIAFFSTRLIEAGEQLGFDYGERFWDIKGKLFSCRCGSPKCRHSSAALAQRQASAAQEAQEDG

Tests used:
Assay in all cases: native MS; GLP-G9a heterodimers co-expressed in E. coli and purified together; 5 µM in 150 mM ammonium acetate pH 7.5, 0.5 mM DTT; both purified
[1] = target: G9a (aa residues 601-1193), ankyrin repeats and methyltransferase domain, wild type (human) (UniProt Q96KQ7)
[2] = target: G9a (aa residues 601-1193), ankyrin repeats and methyltransferase domain, A1077S (human) (UniProt Q96KQ7)
[3] = target: G9a (aa residues 601-1193), ankyrin repeats and methyltransferase domain, Del 1076-9 (human) (UniProt Q96KQ7)

Measured: binding

GLP (aa residues 710-1285), ankyrin repeats and methyltransferase domain (from UniProt Q9H9B1-1 710-1285) (domain or fragment)
binds: all assays above
